The target in test [1] is T1, Lats2 (endogenous) (human (endogenous in MDA-MB-231)) (UniProt Q9NRM7).
T1 sequence: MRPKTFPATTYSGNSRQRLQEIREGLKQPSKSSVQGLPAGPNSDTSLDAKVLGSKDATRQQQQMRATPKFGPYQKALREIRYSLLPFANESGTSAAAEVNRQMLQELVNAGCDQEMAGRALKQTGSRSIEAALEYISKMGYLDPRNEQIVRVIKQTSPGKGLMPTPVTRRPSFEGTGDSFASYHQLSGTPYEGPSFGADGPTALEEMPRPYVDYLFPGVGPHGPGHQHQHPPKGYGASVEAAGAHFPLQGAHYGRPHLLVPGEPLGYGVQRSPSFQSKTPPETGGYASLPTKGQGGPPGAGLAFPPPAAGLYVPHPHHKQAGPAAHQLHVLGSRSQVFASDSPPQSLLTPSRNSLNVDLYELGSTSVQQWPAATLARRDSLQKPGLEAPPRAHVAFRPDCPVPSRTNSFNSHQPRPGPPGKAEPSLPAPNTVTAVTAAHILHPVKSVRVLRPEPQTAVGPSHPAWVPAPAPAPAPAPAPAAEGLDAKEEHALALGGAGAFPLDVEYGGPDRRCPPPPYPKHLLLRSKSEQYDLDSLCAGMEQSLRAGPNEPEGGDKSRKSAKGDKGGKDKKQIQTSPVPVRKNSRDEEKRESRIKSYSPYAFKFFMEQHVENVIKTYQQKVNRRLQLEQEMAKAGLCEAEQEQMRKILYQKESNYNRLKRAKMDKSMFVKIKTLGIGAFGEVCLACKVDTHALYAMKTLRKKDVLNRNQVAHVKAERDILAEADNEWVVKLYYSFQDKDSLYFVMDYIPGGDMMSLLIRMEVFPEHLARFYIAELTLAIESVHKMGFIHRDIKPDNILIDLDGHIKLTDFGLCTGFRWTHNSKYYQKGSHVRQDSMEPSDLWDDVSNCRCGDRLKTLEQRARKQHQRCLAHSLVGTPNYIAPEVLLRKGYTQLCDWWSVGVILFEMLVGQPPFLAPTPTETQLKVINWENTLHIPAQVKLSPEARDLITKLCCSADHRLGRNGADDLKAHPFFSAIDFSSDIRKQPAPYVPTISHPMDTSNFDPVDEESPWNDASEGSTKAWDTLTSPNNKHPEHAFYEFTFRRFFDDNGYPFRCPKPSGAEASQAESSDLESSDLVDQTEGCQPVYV
Put plainly: co-IP; endogenous proteins in MDA-MB-231 lysates; lysis buffer 150 mM NaCl, 20 mM Tris pH 7.4, 1% NP-40; antibody overnight at 4 °C, protein A/G-agarose; for Lats2-Siah2 cells treated with 5 μM MG132 and 5 ng/ml TGF-β for 12 h.

Test [2] addresses T2, Myc-Lats2 (UniProt Q9NRM7).
T2 sequence: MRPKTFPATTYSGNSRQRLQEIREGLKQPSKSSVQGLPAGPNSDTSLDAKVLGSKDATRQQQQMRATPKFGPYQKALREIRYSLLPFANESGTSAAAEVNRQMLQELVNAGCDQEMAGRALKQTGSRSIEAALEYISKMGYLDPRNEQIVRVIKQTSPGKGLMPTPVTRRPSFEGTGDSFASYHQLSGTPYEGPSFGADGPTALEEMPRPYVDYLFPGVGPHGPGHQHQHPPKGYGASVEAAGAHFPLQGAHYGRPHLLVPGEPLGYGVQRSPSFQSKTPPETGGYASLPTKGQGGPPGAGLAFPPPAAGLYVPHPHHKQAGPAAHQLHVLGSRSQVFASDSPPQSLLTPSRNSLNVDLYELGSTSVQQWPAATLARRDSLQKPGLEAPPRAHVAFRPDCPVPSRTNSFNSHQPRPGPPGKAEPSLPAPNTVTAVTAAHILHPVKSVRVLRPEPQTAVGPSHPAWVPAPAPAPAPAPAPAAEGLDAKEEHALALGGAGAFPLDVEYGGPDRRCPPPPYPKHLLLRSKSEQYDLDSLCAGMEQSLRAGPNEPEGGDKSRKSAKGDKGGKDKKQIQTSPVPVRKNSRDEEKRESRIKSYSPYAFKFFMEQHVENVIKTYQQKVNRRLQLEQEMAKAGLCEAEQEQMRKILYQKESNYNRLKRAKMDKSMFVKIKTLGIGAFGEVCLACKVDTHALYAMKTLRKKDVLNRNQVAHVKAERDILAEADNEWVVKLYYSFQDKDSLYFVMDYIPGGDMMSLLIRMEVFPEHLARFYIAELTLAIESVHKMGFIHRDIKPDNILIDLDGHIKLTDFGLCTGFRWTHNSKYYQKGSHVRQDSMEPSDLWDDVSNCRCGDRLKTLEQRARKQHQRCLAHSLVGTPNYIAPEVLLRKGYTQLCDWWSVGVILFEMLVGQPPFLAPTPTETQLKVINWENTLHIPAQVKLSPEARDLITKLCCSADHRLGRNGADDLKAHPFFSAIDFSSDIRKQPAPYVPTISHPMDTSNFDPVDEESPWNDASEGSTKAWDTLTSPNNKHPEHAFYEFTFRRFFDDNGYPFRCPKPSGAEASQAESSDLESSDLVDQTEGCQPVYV
Put plainly: co-IP; exogenously expressed tagged proteins (HEK293T stated for Fig. 4d, 4g, 5e); lysis buffer 150 mM NaCl, 20 mM Tris pH 7.4, 1% NP-40; protein A/G-agarose; for Lats2-Siah2^RM also with increasing Zyxin, Zyxin knock-down or Cytochalasin D.

The target of test [3] is T2, Myc-Lats2. The experiment in a line: co-IP; double co-IP from HEK293T overexpressing Myc-Lats2, Flag-Siah2^RM and Zyxin-V5: anti-Flag IP, elution with Flag peptide, second IP with anti-Myc.
For test [4], the target named is T3, GST-Siah2 (UniProt O43255).
T3 sequence: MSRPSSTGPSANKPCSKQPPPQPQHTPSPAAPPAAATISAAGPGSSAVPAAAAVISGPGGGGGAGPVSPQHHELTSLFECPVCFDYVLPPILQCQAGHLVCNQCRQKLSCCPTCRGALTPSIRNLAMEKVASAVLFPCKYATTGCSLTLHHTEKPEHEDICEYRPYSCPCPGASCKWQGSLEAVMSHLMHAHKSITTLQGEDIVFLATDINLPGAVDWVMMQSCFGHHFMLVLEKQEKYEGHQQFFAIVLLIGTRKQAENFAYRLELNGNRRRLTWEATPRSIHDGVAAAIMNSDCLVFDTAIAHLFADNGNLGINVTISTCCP
Put plainly: pull-down; GST-Siah2 on Glutathione Sepharose 4B, incubated with cell extracts at 4 °C overnight; washed five times with lysis buffer; western blotting; only the target purified.

From publication PMC4821889 come the findings set out here.

These are yes or no findings as the source states them, for the method shown. In cells and extracts the contact can be indirect. Some entries that bind do so weakly or less than the wild type. For part of these data: Sequences can lack the tags named with a protein.

B1: Siah2 (endogenous) (enzyme, UniProt O43255 1-324)
chain: MSRPSSTGPSANKPCSKQPPPQPQHTPSPAAPPAAATISAAGPGSSAVPAAAAVISGPGGGGGAGPVSPQHHELTSLFECPVCFDYVLPPILQCQAGHLVCNQCRQKLSCCPTCRGALTPSIRNLAMEKVASAVLFPCKYATTGCSLTLHHTEKPEHEDICEYRPYSCPCPGASCKWQGSLEAVMSHLMHAHKSITTLQGEDIVFLATDINLPGAVDWVMMQSCFGHHFMLVLEKQEKYEGHQQFFAIVLLIGTRKQAENFAYRLELNGNRRRLTWEATPRSIHDGVAAAIMNSDCLVFDTAIAHLFADNGNLGINVTISTCCP
In the case of B1, the binding result in test [1] was “binds”.

B2: Zyxin (endogenous) (protein, UniProt Q15942 1-572)
chain: MAAPRPSPAISVSVSAPAFYAPQKKFGPVVAPKPKVNPFRPGDSEPPPAPGAQRAQMGRVGEIPPPPPEDFPLPPPPLAGDGDDAEGALGGAFPPPPPPIEESFPPAPLEEEIFPSPPPPPEEEGGPEAPIPPPPQPREKVSSIDLEIDSLSSLLDDMTKNDPFKARVSSGYVPPPVATPFSSKSSTKPAAGGTAPLPPWKSPSSSQPLPQVPAPAQSQTQFHVQPQPQPKPQVQLHVQSQTQPVSLANTQPRGPPASSPAPAPKFSPVTPKFTPVASKFSPGAPGGSGSQPNQKLGHPEALSAGTGSPQPPSFTYAQQREKPRVQEKQHPVPPPAQNQNQVRSPGAPGPLTLKEVEELEQLTQQLMQDMEHPQRQNVAVNELCGRCHQPLARAQPAVRALGQLFHIACFTCHQCAQQLQGQQFYSLEGAPYCEGCYTDTLEKCNTCGEPITDRMLRATGKAYHPHCFTCVVCARPLEGTSFIVDQANRPHCVPDYHKQYAPRCSVCSEPIMPEPGRDETVRVVALDKNFHMKCYKCEDCGKPLSIEADDNGCFPLDGHVLCRKCHTARAQT
B2: the binding result in test [1] was “binds”.

B3: Zyxin-V5 (protein, UniProt Q15942 1-572)
chain: MAAPRPSPAISVSVSAPAFYAPQKKFGPVVAPKPKVNPFRPGDSEPPPAPGAQRAQMGRVGEIPPPPPEDFPLPPPPLAGDGDDAEGALGGAFPPPPPPIEESFPPAPLEEEIFPSPPPPPEEEGGPEAPIPPPPQPREKVSSIDLEIDSLSSLLDDMTKNDPFKARVSSGYVPPPVATPFSSKSSTKPAAGGTAPLPPWKSPSSSQPLPQVPAPAQSQTQFHVQPQPQPKPQVQLHVQSQTQPVSLANTQPRGPPASSPAPAPKFSPVTPKFTPVASKFSPGAPGGSGSQPNQKLGHPEALSAGTGSPQPPSFTYAQQREKPRVQEKQHPVPPPAQNQNQVRSPGAPGPLTLKEVEELEQLTQQLMQDMEHPQRQNVAVNELCGRCHQPLARAQPAVRALGQLFHIACFTCHQCAQQLQGQQFYSLEGAPYCEGCYTDTLEKCNTCGEPITDRMLRATGKAYHPHCFTCVVCARPLEGTSFIVDQANRPHCVPDYHKQYAPRCSVCSEPIMPEPGRDETVRVVALDKNFHMKCYKCEDCGKPLSIEADDNGCFPLDGHVLCRKCHTARAQT
Regarding B3, the binding entry in test [2] and in test [3] was “binds” in each case.

B4: Zyxin (379-572) (domain or fragment, UniProt Q15942 379-572)
chain: AVNELCGRCHQPLARAQPAVRALGQLFHIACFTCHQCAQQLQGQQFYSLEGAPYCEGCYTDTLEKCNTCGEPITDRMLRATGKAYHPHCFTCVVCARPLEGTSFIVDQANRPHCVPDYHKQYAPRCSVCSEPIMPEPGRDETVRVVALDKNFHMKCYKCEDCGKPLSIEADDNGCFPLDGHVLCRKCHTARAQT
For the molecule B4, the binding result in test [2] and in test [4] was “binds” in each case.
